Patent EP0255206B1, “Peptides that inhibit von Willebrand factor binding” (THE SCRIPPS RESEARCH INSTITUTE, priority 1986, dated 1995)
At least one peptide structure holds a part that was inferred or is arguable (an end, a ring closure or a residue). No end group written: not given here.

Assays:
vWF binding to platelets = experiment: Inhibition of 125I-vWF binding to platelets in the presence of ristocetin; settings: competing ligand at 2.16 ug/ul; 125I-vWF 5 ug/ml; ristocetin 0.75 mg/ml; platelets 10^8/ml; 30 minutes at room temperature
vWF binding to heparin = experiment: Inhibition of 125I-vWF binding to Heparin-Sepharose CL-6B; settings: competing ligand at 2.16 ug/ml; 125I-vWF 1 ug/ml; Heparin-Sepharose CL-6B 5% (v/v); 30 minutes at room temperature

Sequence	inhibition of von Willebrand factor binding to platelets (vWF binding to platelets)	inhibition of von Willebrand factor binding to heparin (vWF binding to heparin) [%]
LCDLAPEAPPPTLPP [LCDLAPEAPPPTLPP]	completely inhibited	
KDRKRPSELRRIASQ [KDRKRPSELRRIASQ]		75
